In publication PMC13080237, “Functional divergence of protein kinase A regulatory subunit Iβ variants: the importance of N3A motifs in PKA regulation” (The Febs Journal, 2025):
No constants are given. Whether binding was seen depends on the method and setting. Binding seen in cells or lysates may run through a third protein. Some results given as binding are weak or reduced against the parent protein; the word gives no strength. Sequences can lack the tags named with a protein.

Sequences of proteins named here, by UniProt entry; tags and fusion partners are left off.
UniProt P31321: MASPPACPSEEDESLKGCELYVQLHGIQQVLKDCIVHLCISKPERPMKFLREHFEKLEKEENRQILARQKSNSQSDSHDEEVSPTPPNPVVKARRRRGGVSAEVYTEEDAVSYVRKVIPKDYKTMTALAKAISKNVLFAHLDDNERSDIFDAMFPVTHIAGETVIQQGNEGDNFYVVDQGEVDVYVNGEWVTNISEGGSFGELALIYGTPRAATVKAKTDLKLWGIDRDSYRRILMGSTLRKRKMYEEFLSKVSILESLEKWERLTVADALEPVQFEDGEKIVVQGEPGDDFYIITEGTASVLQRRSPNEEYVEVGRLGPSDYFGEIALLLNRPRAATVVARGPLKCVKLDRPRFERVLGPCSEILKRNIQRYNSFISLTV

Target: T1, GFP2 fusion of human protein kinase X (PrKX) (BRET acceptor) (human) (UniProt P51817)
T1 sequence: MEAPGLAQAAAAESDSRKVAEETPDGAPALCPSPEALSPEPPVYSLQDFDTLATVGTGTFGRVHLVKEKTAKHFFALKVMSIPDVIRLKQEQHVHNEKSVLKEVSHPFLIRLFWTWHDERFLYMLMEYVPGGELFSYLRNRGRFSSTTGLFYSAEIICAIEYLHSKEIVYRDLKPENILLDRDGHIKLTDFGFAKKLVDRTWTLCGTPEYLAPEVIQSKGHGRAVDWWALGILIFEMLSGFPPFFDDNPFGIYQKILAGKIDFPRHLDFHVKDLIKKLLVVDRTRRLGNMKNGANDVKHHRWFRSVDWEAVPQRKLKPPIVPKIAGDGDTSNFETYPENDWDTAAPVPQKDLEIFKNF
Test: FRET or BRET; BRET2 in living HEK293 cells; RLuc8 fused to the R subunit, GFP2 fused to the C subunit; 37 °C, HBSS w/o Mg2+/Ca2+ pH 7.4, coelenterazine 400a; time courses and end points (20 min); cells treated with buffer, 100 nM isoproterenol, or 50 uM forskolin + 100 uM IBMX

RLuc8 fusion of human RIβ A268 (BRET donor) (from UniProt P31321 1-381)
binding: binds
